Source: the supplement of paper PMC5355238
Counter-ions that a name gives are not always drawn. This is one part of the list. Most entries show no effect beyond the scatter of the controls.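 Reh, a human leukemia cell line, is read out by flow cytometry as the median γH2AX antibody signal in S-phase cells; the score counts standard deviations from the median difference of each paired plate set. Scores above 2.5 were candidate hits; scores below -2 mark compounds lowering MK1775-induced damage.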

Tested on: Reh
Assay: Z' of S-phase gammaH2AX difference (drug + MK1775 minus drug alone) (Z-score); higher = stronger synergistic S-phase DNA damage with MK1775
Conditions: MK1775 concentration 400 nM; first compound 10 µM; 4 h

Structure (SMILES) | Z' of S-phase gammaH2AX difference (Z-score)
C[N+](C)(C)CC=O [Betaine aldehyde chloride] + C=CCn1c(=O)c2cnc(Nc3ccc(N4CCN(C)CC4)cc3)nc2n1-c1cccc(C(C)(C)O)n1 [MK1775] | inactive: 0.0501
Cn1c(=O)[nH]c2ncn(C)c2c1=O [1,7-Dimethylxanthine] + C=CCn1c(=O)c2cnc(Nc3ccc(N4CCN(C)CC4)cc3)nc2n1-c1cccc(C(C)(C)O)n1 [MK1775] | inactive: 0.134
C1COC(NC(C2CC2)C2CC2)=N1 [Rilmenidine hemifumarate] + C=CCn1c(=O)c2cnc(Nc3ccc(N4CCN(C)CC4)cc3)nc2n1-c1cccc(C(C)(C)O)n1 [MK1775] | inactive: 0.692
COc1cc(OC2CCN(C)CC2)ccc1Nc1ncc2c(n1)n(C1CCCC1)c(=O)n2C + C=CCn1c(=O)c2cnc(Nc3ccc(N4CCN(C)CC4)cc3)nc2n1-c1cccc(C(C)(C)O)n1 [MK1775] | inactive: -0.18
Cc1ccc(S(=O)(=O)N[C@@H](Cc2ccccc2)C(=O)CCl)cc1 [N-p-Tosyl-L-phenylalanine chloromethyl ketone] + C=CCn1c(=O)c2cnc(Nc3ccc(N4CCN(C)CC4)cc3)nc2n1-c1cccc(C(C)(C)O)n1 [MK1775] | inactive: 0.83
CC(NC(=O)c1ccccc1/N=C/c1c(O)ccc2ccccc12)c1ccccc1 (stereo unspecified) [Sirtinol] + C=CCn1c(=O)c2cnc(Nc3ccc(N4CCN(C)CC4)cc3)nc2n1-c1cccc(C(C)(C)O)n1 [MK1775] | inactive: 0.462
NC1CCN(c2cccc(Cl)n2)CC1 + C=CCn1c(=O)c2cnc(Nc3ccc(N4CCN(C)CC4)cc3)nc2n1-c1cccc(C(C)(C)O)n1 [MK1775] | inactive: 0.725
NC(=NCCC[C@H](N)C(=O)O)NO [NG-Hydroxy-L-arginine acetate] + C=CCn1c(=O)c2cnc(Nc3ccc(N4CCN(C)CC4)cc3)nc2n1-c1cccc(C(C)(C)O)n1 [MK1775] | inactive: 1.04
CC(C)NCC(O)COc1ccc(CCOCC2CC2)cc1 (stereo unspecified) [Betaxolol hydrochloride] + C=CCn1c(=O)c2cnc(Nc3ccc(N4CCN(C)CC4)cc3)nc2n1-c1cccc(C(C)(C)O)n1 [MK1775] | inactive: 0.274
C[C@H]1c2cccc(O)c2C(=O)C2=C(O)[C@]3(O)C(=O)C(C(N)=O)=C(O)[C@@H](N(C)C)[C@@H]3[C@@H](O)[C@@H]21 [Doxycycline hydrochloride] + C=CCn1c(=O)c2cnc(Nc3ccc(N4CCN(C)CC4)cc3)nc2n1-c1cccc(C(C)(C)O)n1 [MK1775] | inactive: -0.051
O=C(O)CNC(=O)C(CS)Cc1ccccc1 (racemic) [DL-Thiorphan] + C=CCn1c(=O)c2cnc(Nc3ccc(N4CCN(C)CC4)cc3)nc2n1-c1cccc(C(C)(C)O)n1 [MK1775] | inactive: 0.285
C[C@](N)(Cc1ccc(O)c(O)c1)C(=O)O [L-alpha-Methyl DOPA] + C=CCn1c(=O)c2cnc(Nc3ccc(N4CCN(C)CC4)cc3)nc2n1-c1cccc(C(C)(C)O)n1 [MK1775] | inactive: 1.22
c1cnc(N2CCN(Cc3ccc4c(c3)OCO4)CC2)nc1 [Piribedil maleate] + C=CCn1c(=O)c2cnc(Nc3ccc(N4CCN(C)CC4)cc3)nc2n1-c1cccc(C(C)(C)O)n1 [MK1775] | inactive: 0.64
Fc1ccc(CN(C2=NCCN2)c2c(Cl)cccc2Cl)cc1 [IMID-4F hydrochloride] + C=CCn1c(=O)c2cnc(Nc3ccc(N4CCN(C)CC4)cc3)nc2n1-c1cccc(C(C)(C)O)n1 [MK1775] | inactive: 0.231
Cc1nn(-c2ccccc2)c(C)c1C=NN1CCN(Cc2ccccc2)CC1 + C=CCn1c(=O)c2cnc(Nc3ccc(N4CCN(C)CC4)cc3)nc2n1-c1cccc(C(C)(C)O)n1 [MK1775] | inactive: -0.0998
Cc1ccc(NC(=O)c2ccc(CN3CCN(C)CC3)cc2)cc1Nc1nccc(-c2cccnc2)n1 [Imatinib (Gleevec)] + C=CCn1c(=O)c2cnc(Nc3ccc(N4CCN(C)CC4)cc3)nc2n1-c1cccc(C(C)(C)O)n1 [MK1775] | inactive: 0.0392
CN1CCN(C2Cc3ccccc3Sc3ccc(Cl)cc32)CC1 (stereo unspecified) [(?)-Octoclothepin maleate] + C=CCn1c(=O)c2cnc(Nc3ccc(N4CCN(C)CC4)cc3)nc2n1-c1cccc(C(C)(C)O)n1 [MK1775] | inactive: 0.626
CN[C@H](CC(=O)O)C(=O)O [N-Methyl-D-aspartic acid] + C=CCn1c(=O)c2cnc(Nc3ccc(N4CCN(C)CC4)cc3)nc2n1-c1cccc(C(C)(C)O)n1 [MK1775] | inactive: 0.665

Structure (SMILES) | Z' of S-phase gammaH2AX difference (Z-score)
C#Cc1cccc(Nc2ncnc3cc(OCCOC)c(OCCOC)cc23)c1 [Erlotinib HCl] + C=CCn1c(=O)c2cnc(Nc3ccc(N4CCN(C)CC4)cc3)nc2n1-c1cccc(C(C)(C)O)n1 [MK1775] | inactive: -0.0229
Cn1c(=O)c2[nH]c(-c3ccccc3)nc2n(C)c1=O [1,3-Dimethyl-8-phenylxanthine] + C=CCn1c(=O)c2cnc(Nc3ccc(N4CCN(C)CC4)cc3)nc2n1-c1cccc(C(C)(C)O)n1 [MK1775] | inactive: 0.32
OC[C@H]1NC[C@H](O)[C@@H](O)[C@@H]1O [1-Deoxynojirimycin hydrochloride] + C=CCn1c(=O)c2cnc(Nc3ccc(N4CCN(C)CC4)cc3)nc2n1-c1cccc(C(C)(C)O)n1 [MK1775] | inactive: -0.819
CC(C)C[C@@H](C(=O)N[C@H](C(=O)OC1CCCC1)c1ccccc1)[C@H](O)C(=O)NO [Tosedostat (CHR2797)] + C=CCn1c(=O)c2cnc(Nc3ccc(N4CCN(C)CC4)cc3)nc2n1-c1cccc(C(C)(C)O)n1 [MK1775] | inactive: 0.191
NCCCNCCCCNCCCN [Spermine tetrahydrochloride] + C=CCn1c(=O)c2cnc(Nc3ccc(N4CCN(C)CC4)cc3)nc2n1-c1cccc(C(C)(C)O)n1 [MK1775] | inactive: -0.136
CCN(CC)CCNC(=O)c1cc(Cl)c(N)cc1OC [Metoclopramide hydrochloride] + C=CCn1c(=O)c2cnc(Nc3ccc(N4CCN(C)CC4)cc3)nc2n1-c1cccc(C(C)(C)O)n1 [MK1775] | inactive: -0.262
CN(C)C/C=C(/c1ccc(Br)cc1)c1cccnc1 [Zimelidine dihydrochloride] + C=CCn1c(=O)c2cnc(Nc3ccc(N4CCN(C)CC4)cc3)nc2n1-c1cccc(C(C)(C)O)n1 [MK1775] | inactive: -1.41
N#C/C(=C\c1c[nH]c2ccccc12)C(=O)c1ccc(O)c(O)c1 [Tyrphostin AG 808] + C=CCn1c(=O)c2cnc(Nc3ccc(N4CCN(C)CC4)cc3)nc2n1-c1cccc(C(C)(C)O)n1 [MK1775] | inactive: -0.953
Cn1cnc2c1c(=O)[nH]c(=O)n2C [Theobromine] + C=CCn1c(=O)c2cnc(Nc3ccc(N4CCN(C)CC4)cc3)nc2n1-c1cccc(C(C)(C)O)n1 [MK1775] | inactive: 0.427
CO[C@H]1/C=C\C=C(/C)C(=O)NC2=CC(=O)C(NCCN(C)C)=C(C[C@@H](C)C[C@H](OC)[C@H](O)[C@@H](C)/C=C(\C)[C@@H]1OC(N)=O)C2=O [17-DMAG HCl (Alvespimycin)] + C=CCn1c(=O)c2cnc(Nc3ccc(N4CCN(C)CC4)cc3)nc2n1-c1cccc(C(C)(C)O)n1 [MK1775] | inactive: 0.273
NC/C=C/C(=O)O [(E)-4-amino-2-butenoic acid] + C=CCn1c(=O)c2cnc(Nc3ccc(N4CCN(C)CC4)cc3)nc2n1-c1cccc(C(C)(C)O)n1 [MK1775] | inactive: 0.103
CCN(CC)CCOC(=O)c1cc(Cl)c(N)cc1OC [SDZ-205,557 hydrochloride] + C=CCn1c(=O)c2cnc(Nc3ccc(N4CCN(C)CC4)cc3)nc2n1-c1cccc(C(C)(C)O)n1 [MK1775] | inactive: -0.39
CC(=O)N[C@@H](Cc1c[nH]c2ccccc12)C(=O)OCc1cc(C(F)(F)F)cc(C(F)(F)F)c1 + C=CCn1c(=O)c2cnc(Nc3ccc(N4CCN(C)CC4)cc3)nc2n1-c1cccc(C(C)(C)O)n1 [MK1775] | inactive: -0.114
CCN(c1nc(N)c(C(=O)NC(=N)N)nc1Cl)C(C)C [5-(N-Ethyl-N-isopropyl)amiloride] + C=CCn1c(=O)c2cnc(Nc3ccc(N4CCN(C)CC4)cc3)nc2n1-c1cccc(C(C)(C)O)n1 [MK1775] | inactive: 0.835
O=C(O)Cc1c[nH]c2ccc(O)cc12 [5-Hydroxyindolacetic acid] + C=CCn1c(=O)c2cnc(Nc3ccc(N4CCN(C)CC4)cc3)nc2n1-c1cccc(C(C)(C)O)n1 [MK1775] | inactive: -1.08
CN(C)CCC=C1c2ccccc2COc2ccccc21 [Doxepin hydrochloride] + C=CCn1c(=O)c2cnc(Nc3ccc(N4CCN(C)CC4)cc3)nc2n1-c1cccc(C(C)(C)O)n1 [MK1775] | inactive: 0.658
CC(C)[N+](C)(CCOC(=O)C1c2ccccc2Oc2ccccc21)C(C)C [Propantheline bromide] + C=CCn1c(=O)c2cnc(Nc3ccc(N4CCN(C)CC4)cc3)nc2n1-c1cccc(C(C)(C)O)n1 [MK1775] | inactive: -0.252
C[S+]([O-])c1ccc(-c2nc(-c3ccc(F)cc3)c(-c3ccncc3)[nH]2)cc1 (stereo unspecified) + C=CCn1c(=O)c2cnc(Nc3ccc(N4CCN(C)CC4)cc3)nc2n1-c1cccc(C(C)(C)O)n1 [MK1775] | inactive: 0.153

Quoted from the listing:
CCN(c1nc(N)c(C(=O)NC(=N)N)nc1Cl)C(C)C [5-(N-Ethyl-N-isopropyl)amiloride] + C=CCn1c(=O)c2cnc(Nc3ccc(N4CCN(C)CC4)cc3)nc2n1-c1cccc(C(C)(C)O)n1 [MK1775] – Z' of S-phase gammaH2AX difference (Z-score): inactive: 0.835
CC(C)[N+](C)(CCOC(=O)C1c2ccccc2Oc2ccccc21)C(C)C [Propantheline bromide] + C=CCn1c(=O)c2cnc(Nc3ccc(N4CCN(C)CC4)cc3)nc2n1-c1cccc(C(C)(C)O)n1 [MK1775] – Z' of S-phase gammaH2AX difference (Z-score): inactive: -0.252
